PubChem BioAssay AID1224830, NIAID – 2016

- Assay: 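Regulators of TLR4 signalling towards TNF-alpha in macrophage-like cells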 (primary screen)
- System: human THP-1 monocytic leukaemia cells, TNF dual-luciferase reporter clone, PMA-differentiated to macrophage-like cells
- Reagents: siRNA pool against human genes, 50 nM
- Time to read-out: LPS for 4 h, given about 3 days after siRNA transfection
- Challenge: bacterial LPS (TLR4 ligand), 10 ng/ml
- Read-out: 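Ratio of firefly to renilla light, scaled to the plate median and expressed as a robust z-score per replicate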
- Reading the numbers: TNF reporter robust z-score: higher = stronger TNF reporter response to LPS
- Rule for the call: 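Each well counts as active if its z-score is over 2.8 or under -1.5; controls are left without a call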
In all, the deposit lists about 18,000 reagents; shown is a random part of them. Of all reagents, about 2,900 (16%) were called active. 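Calls are made per well; low scores hint the gene aids the LPS response, high scores that it dampens it.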 Repeated entries: four replicate wells of each siRNA pool.

| gene knocked down | TNF reporter robust z-score | call |
| --- | --- | --- |
| IL1R2 | 2.29 | inactive |
| IL1R2 | 2.65 | inactive |
| IL1R2 | 2.77 | inactive |
| IL1R2 | 2.21 | inactive |
| METTL6 | -0.38 | inactive |
| METTL6 | 0.17 | inactive |
| METTL6 | -0.49 | inactive |
| METTL6 | -0.31 | inactive |
| OR4N2 | -0.7 | inactive |
| OR4N2 | 0.16 | inactive |
| OR4N2 | -0.15 | inactive |
| OR4N2 | 0.38 | inactive |
| CD59 | 1.41 | inactive |
| CD59 | -0.08 | inactive |
| CD59 | 0.27 | inactive |
| CD59 | 1.01 | inactive |
| HRC | 0.28 | inactive |
| HRC | -1.99 | active |
| HRC | -0.62 | inactive |
| HRC | -0.55 | inactive |
| SMPD1 | -0.72 | inactive |
| SMPD1 | 0.21 | inactive |
| SMPD1 | -0.58 | inactive |
| SMPD1 | -0.49 | inactive |
| ETV2 | 0.62 | inactive |
| ETV2 | 0.17 | inactive |
| ETV2 | -1.37 | inactive |
| ETV2 | -0.98 | inactive |

The list goes on (6 carried over from the part before).
| gene knocked down | TNF reporter robust z-score | call |
| --- | --- | --- |
| SMPD1 | -0.58 | inactive |
| SMPD1 | -0.49 | inactive |
| ETV2 | 0.62 | inactive |
| ETV2 | 0.17 | inactive |
| ETV2 | -1.37 | inactive |
| ETV2 | -0.98 | inactive |
| SEPTIN3 | 0.39 | inactive |
| SEPTIN3 | 0.64 | inactive |
| SEPTIN3 | -0.34 | inactive |
| SEPTIN3 | 0.79 | inactive |
| DNMT3L | 0.48 | inactive |
| DNMT3L | 0.34 | inactive |
| DNMT3L | 0.18 | inactive |
| DNMT3L | 2.16 | inactive |
| GFI1B | 1.16 | inactive |
| GFI1B | 2.6 | inactive |
| GFI1B | 1.32 | inactive |
| GFI1B | 1.01 | inactive |
| PRR16 | -0.96 | inactive |
| PRR16 | -0.13 | inactive |
| PRR16 | 0.06 | inactive |
| PRR16 | 0.05 | inactive |
| CUL5 | 20.3 | active |
| CUL5 | -1.04 | inactive |
| CUL5 | -0.76 | inactive |
| CUL5 | -0.33 | inactive |
| HERPUD2 | -0.19 | inactive |
| HERPUD2 | 0.97 | inactive |
| HERPUD2 | 1.37 | inactive |
| HERPUD2 | 1 | inactive |
| ADD3 | 1.39 | inactive |
| ADD3 | 0.75 | inactive |
| ADD3 | -0.72 | inactive |
| ADD3 | 0.78 | inactive |
| CAPNS2 | -1.2 | inactive |
| CAPNS2 | -0.66 | inactive |
| CAPNS2 | -0.73 | inactive |
| CAPNS2 | -0.32 | inactive |
| RYR1 | -1.11 | inactive |
| RYR1 | 0.01 | inactive |
| RYR1 | -0.04 | inactive |
| RYR1 | 1.72 | inactive |
| ZC3H15 | 0.81 | inactive |
| ZC3H15 | 2.37 | inactive |
| ZC3H15 | 1.62 | inactive |
| ZC3H15 | 2.43 | inactive |
| RSRC2 | 2.39 | inactive |
| RSRC2 | 2.35 | inactive |
| RSRC2 | 3.41 | active |
| RSRC2 | 3.26 | active |
| PGAP1 | 0.78 | inactive |
| PGAP1 | -0.48 | inactive |
| PGAP1 | -0.49 | inactive |
| PGAP1 | 0 | inactive |
